The other results are listed elsewhere or left out. Most values lie at the level of the controls, where differences are scatter.

The chains behind the UniProt entries cited, without tags or fusion partners. Where a name states a change or a piece, a line headed by the entry shows the natural chain unless it says otherwise.
UniProt Q8TAQ2, whole entry: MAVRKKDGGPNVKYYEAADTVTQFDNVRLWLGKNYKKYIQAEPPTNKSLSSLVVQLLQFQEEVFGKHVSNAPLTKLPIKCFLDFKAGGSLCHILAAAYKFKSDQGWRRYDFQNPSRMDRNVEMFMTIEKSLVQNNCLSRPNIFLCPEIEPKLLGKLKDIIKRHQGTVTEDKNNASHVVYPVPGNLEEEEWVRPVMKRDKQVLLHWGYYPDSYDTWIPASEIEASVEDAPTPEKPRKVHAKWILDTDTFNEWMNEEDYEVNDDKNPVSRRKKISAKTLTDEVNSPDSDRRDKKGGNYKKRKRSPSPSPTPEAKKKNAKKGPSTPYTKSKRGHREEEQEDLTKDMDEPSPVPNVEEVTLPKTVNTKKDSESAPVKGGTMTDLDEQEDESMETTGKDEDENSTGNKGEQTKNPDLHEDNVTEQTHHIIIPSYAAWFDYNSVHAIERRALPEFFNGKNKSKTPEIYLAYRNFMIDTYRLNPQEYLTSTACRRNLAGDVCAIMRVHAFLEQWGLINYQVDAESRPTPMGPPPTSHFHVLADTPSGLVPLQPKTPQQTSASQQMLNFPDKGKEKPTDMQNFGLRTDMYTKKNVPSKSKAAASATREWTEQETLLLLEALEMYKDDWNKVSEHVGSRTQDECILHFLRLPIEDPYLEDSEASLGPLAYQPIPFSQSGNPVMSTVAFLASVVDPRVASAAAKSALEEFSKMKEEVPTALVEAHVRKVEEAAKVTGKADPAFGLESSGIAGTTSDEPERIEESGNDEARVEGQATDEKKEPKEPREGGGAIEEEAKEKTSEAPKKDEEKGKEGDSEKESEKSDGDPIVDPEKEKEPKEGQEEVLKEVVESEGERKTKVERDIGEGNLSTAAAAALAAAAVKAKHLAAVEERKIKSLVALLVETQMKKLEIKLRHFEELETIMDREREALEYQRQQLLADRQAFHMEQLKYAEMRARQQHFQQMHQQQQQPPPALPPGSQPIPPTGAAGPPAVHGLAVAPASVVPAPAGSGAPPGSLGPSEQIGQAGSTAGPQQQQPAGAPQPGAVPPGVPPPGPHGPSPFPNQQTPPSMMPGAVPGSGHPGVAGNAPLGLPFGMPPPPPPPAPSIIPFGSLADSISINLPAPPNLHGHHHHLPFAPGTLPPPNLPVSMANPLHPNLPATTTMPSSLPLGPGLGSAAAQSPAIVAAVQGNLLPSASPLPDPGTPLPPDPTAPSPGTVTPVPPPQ
UniProt Q8WUA7: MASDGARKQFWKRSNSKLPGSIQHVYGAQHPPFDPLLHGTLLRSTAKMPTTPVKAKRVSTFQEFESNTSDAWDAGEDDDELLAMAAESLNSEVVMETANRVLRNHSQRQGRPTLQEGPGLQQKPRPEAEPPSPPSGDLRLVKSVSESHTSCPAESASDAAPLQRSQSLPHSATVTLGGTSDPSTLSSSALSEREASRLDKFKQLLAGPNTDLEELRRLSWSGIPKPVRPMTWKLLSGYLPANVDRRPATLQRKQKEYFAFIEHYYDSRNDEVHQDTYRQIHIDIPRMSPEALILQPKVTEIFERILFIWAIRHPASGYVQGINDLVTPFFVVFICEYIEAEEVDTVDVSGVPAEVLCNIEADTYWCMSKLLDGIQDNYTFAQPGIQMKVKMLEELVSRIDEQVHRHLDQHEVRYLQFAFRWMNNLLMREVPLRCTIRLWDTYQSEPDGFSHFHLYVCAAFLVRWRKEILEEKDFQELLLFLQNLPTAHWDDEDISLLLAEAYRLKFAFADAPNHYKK
UniProt Q8WZ19: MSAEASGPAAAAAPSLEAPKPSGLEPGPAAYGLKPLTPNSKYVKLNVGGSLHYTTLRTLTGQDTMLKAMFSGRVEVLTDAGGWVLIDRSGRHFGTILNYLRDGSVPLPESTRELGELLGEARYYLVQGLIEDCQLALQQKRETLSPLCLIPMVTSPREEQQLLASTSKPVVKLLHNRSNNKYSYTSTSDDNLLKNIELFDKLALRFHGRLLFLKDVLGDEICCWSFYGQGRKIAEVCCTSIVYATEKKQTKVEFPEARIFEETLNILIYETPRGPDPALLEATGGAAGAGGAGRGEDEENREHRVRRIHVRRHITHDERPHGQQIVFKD
UniProt Q8TDY4: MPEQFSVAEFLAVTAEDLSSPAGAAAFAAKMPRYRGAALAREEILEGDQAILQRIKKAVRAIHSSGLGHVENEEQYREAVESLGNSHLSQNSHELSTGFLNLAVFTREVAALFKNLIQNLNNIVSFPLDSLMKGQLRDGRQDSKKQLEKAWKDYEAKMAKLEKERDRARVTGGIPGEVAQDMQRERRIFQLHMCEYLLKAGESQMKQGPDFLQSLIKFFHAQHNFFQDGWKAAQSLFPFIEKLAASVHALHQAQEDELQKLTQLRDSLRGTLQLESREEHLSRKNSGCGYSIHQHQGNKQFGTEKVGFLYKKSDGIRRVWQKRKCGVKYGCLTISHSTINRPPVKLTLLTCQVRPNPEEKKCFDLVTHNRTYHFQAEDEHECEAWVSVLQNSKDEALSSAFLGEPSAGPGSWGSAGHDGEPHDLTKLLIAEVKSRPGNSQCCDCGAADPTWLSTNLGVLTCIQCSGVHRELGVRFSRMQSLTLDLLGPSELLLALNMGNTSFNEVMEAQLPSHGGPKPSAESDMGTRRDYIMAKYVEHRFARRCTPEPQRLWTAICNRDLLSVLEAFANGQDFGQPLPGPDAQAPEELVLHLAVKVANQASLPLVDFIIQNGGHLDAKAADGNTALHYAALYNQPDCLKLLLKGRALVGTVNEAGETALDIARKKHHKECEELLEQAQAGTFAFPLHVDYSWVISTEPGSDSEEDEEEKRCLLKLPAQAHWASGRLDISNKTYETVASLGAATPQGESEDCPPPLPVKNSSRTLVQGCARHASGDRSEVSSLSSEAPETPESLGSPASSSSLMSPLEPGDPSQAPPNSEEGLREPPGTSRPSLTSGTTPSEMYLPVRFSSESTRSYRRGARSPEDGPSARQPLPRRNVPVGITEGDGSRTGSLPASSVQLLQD
UniProt Q8TCU6, whole entry: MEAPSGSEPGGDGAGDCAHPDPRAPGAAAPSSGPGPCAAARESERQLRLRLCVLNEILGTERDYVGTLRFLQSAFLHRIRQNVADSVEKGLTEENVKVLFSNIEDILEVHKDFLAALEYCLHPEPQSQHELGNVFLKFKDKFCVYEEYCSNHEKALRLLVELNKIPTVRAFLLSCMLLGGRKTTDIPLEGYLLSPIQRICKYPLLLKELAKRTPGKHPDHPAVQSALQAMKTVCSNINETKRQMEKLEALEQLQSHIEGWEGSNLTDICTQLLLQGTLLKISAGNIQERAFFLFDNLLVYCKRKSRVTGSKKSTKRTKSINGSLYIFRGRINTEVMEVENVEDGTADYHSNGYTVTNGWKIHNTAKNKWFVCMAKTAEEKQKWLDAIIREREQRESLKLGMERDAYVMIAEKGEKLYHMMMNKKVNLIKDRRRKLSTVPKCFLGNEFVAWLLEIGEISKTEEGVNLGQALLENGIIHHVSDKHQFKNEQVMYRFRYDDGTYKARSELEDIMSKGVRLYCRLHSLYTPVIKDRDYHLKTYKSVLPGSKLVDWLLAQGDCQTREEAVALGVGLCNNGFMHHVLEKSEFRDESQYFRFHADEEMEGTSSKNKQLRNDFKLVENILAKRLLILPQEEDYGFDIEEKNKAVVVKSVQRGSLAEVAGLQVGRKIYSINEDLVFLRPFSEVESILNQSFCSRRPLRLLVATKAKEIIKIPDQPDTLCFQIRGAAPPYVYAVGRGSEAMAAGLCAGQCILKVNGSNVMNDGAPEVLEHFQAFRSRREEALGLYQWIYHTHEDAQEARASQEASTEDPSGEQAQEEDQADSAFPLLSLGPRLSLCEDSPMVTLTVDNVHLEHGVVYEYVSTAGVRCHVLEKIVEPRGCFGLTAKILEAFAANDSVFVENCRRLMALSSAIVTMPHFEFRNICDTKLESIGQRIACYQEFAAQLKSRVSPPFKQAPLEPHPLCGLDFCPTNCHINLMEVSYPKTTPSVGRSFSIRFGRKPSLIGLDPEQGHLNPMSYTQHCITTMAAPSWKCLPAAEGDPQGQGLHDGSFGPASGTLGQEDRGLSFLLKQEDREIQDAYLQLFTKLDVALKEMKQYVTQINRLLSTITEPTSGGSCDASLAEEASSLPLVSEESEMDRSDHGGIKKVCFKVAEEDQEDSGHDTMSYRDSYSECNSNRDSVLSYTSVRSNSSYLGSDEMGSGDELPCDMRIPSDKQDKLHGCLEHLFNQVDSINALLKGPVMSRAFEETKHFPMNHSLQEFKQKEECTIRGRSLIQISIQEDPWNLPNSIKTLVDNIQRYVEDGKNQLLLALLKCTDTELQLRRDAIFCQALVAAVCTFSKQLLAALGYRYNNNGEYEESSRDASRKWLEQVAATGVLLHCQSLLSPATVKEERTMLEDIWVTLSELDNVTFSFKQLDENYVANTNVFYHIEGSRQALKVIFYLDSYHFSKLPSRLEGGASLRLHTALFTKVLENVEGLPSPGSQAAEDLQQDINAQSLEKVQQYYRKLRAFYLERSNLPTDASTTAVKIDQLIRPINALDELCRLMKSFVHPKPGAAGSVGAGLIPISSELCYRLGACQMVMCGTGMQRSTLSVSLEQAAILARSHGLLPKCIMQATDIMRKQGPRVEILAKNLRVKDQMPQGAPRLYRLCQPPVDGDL
UniProt Q8TBC4: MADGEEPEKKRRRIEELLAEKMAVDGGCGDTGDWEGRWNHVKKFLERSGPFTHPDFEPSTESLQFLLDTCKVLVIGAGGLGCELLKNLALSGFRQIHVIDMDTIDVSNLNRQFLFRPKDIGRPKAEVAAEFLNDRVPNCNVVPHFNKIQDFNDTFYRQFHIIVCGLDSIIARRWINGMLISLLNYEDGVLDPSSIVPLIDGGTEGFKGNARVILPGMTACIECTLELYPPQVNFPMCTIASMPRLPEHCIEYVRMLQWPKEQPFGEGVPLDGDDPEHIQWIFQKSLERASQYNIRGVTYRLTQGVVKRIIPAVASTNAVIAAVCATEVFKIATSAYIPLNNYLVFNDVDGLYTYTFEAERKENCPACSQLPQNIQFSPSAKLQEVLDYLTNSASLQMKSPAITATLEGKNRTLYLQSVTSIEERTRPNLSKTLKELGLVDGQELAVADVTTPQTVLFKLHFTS
UniProt Q8TDZ2: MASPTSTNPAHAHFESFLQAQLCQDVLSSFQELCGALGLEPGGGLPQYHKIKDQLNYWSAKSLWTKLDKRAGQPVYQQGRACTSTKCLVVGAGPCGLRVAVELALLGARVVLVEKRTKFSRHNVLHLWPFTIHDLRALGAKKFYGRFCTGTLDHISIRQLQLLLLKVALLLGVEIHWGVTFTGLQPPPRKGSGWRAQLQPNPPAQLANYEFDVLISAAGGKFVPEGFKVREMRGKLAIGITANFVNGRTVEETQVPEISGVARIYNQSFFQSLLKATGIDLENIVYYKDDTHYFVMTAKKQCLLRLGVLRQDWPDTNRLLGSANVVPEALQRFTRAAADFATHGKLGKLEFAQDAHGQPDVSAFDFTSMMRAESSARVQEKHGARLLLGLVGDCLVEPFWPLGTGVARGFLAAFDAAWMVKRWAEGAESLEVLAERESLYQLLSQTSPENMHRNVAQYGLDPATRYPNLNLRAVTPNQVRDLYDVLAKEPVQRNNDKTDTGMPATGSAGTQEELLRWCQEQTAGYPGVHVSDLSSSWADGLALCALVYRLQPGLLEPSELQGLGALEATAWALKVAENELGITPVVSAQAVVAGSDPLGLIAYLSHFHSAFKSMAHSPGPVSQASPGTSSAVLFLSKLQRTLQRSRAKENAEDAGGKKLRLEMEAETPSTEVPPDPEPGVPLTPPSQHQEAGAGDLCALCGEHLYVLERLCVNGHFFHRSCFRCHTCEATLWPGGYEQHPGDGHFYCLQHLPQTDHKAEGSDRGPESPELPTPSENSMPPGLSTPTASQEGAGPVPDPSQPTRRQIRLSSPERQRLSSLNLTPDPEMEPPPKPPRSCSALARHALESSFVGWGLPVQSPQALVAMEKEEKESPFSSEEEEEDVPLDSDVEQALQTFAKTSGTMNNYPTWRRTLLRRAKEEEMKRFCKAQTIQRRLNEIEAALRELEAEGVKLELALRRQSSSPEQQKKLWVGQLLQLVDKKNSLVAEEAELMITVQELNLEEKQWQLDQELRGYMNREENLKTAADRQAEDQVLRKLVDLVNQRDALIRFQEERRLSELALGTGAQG

Among the data in the supplement of paper PMC12819154, “High-throughput peptide-centric local stability assay extends protein–ligand identification to membrane proteins, tissues and bacteria” (Nature Structural & Molecular Biology, 2025) are log2 fold change values, retold here.

Compound in this test: Cc1nc(Nc2ncc(C(=O)Nc3c(C)cccc3Cl)s2)cc(N2CCN(CCO)CC2)n1 [dasatinib]
In words: log2 fold change of tryptic peptide abundance, ligand vs vehicle (limited proteolysis) (log2 ratio); higher = more trypsin-susceptible (destabilized). Conditions: ligand concentration: 5 uM; sample: K562 cleared lysate.
As to “SMARCC2 (peptide sequence: VEGQATDEKKEPK, peptide start residue: 761) (UniProt Q8TAQ2)”, the log2 fold change turned out to be 0.0885.
In the case of “TBC1D22A (peptide sequence: LSWSGIPKPVRPMTWK, peptide start residue: 218) (UniProt Q8WUA7)”, the log2 fold change came out at 0.252.
To “KCTD13 (peptide sequence: LNVGGSLHYTTLR, peptide start residue: 45) (UniProt Q8WZ19)” belongs 0.18; to “ASAP3 (peptide sequence: NSGCGYSIHQHQGNK, peptide start residue: 285) (UniProt Q8TDY4)”, -0.787; to “BCL7C (peptide sequence: KVMATIEK, peptide start residue: 20) (UniProt Q8WUZ0)”, -0.177.
Next, “PREX1 (peptide sequence: DSYSECNSNR, peptide start residue: 1168) (UniProt Q8TCU6)”: -0.315.
To “UBA3 (peptide sequence: SPAITATLEGK, peptide start residue: 399) (UniProt Q8TBC4)” belongs -0.142; to “MICAL1 (peptide sequence: RQSSSPEQQKK, peptide start residue: 958) (UniProt Q8TDZ2)”, -0.589.
Regarding “MRPL30 (peptide sequence: VFQASPEDHEK, peptide start residue: 45) (UniProt Q8TCC3)”, the log2 fold change was -0.273.
Next, “DENND1A (peptide sequence: KTPELGIVPPPPIPRPAK, peptide start residue: 706) (UniProt Q8TEH3)”: -0.544.
